Experimental findings from patent US6403602B1 (priority 1997, dated 2002) are described below.

Test [1] has as its system electrically stimulated guinea pig ileum. In words: tissue or blood. The class given is cell-based. The conditions noted are these: Cavia porcellus, read-out: Guinea Pig Ileum IC50 (nM).
In test [2] the test system is electrically stimulated mouse vas deferens. In words: tissue or blood. The conditions noted are these: read-out: Mouse Vas Deferens IC50 (nM). The class given is cell-based.

For `CN1CC[C@]23c4c5ccc(O)c4O[C@H]2[C@@H](O)C=C[C@H]3[C@H]1C5` [Morphine, morphine], the IC50 in test [1] is 24.8 nM; in test [2] it was 2130 nM.

One may read the IC50 as the concentration needed to halve the response being measured.
